{"source": "patent US7217694B2", "about": "“Inhibitors of IAPP fibril formation and uses thereof” (The Governing Counsel of the University of Toronto, priority 2000, dated 2007)", "key": {"[1]": {"target": "T1, hIAPP 1–37 (Homo sapiens, UniProt P10997)", "T1 construct": "Synthetic human IAPP (1–37) was purchased from BACHEM; purchased BACHEM (Torrence, Calif.); host or cells: chemical synthesis", "T1 sequence (P10997 34-70)": "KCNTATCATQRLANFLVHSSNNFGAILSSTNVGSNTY", "assay": "Circular dichroism (CD) of IAPP conformational change, random coil to β-sheet", "type": "biochemical", "excerpt": "FIG. 1 illustrates the sequence of the amyloid-β (Aβ) peptide and its proposed structural domains. A peptide-based approach similar to that used for Aβ (Tjernberg, et al, J Biol Chem 272:12601–12605, 1997) has been used for targeting two key domains in IAPP initially ranging from the 8–20 and 20–29 sequences as shown in FIG. 2. These peptides, as has been shown for Aβ peptides, are able to bind to the full-length IAPP peptide and alter fibrillogenesis. The peptides disrupt fibrillogenesis by disrupting the folding into the amyloidogenic β-sheet conformation, disrupting protofilament interactions, and/or interfering with side chain interactions within the folded IAPP, which are necessary for aggregation and fibril formation. The peptides that have been examined (shown in FIG. 2) were small, synthetic hexapeptides that correspond to the principal sequence domains of IAPP. […] The in vitro assays included: Circular Dichroism (CD), to look at changes in folding of the amyloidogenic β-sheet; negative stain electron microscopy (EM) to examine changes in fibril morphology and relative density; and ThT fluorescence assay which provides a quantitative assessment of fibril formation.\nSynthetic human IAPP (1–37) was purchased from BACHEM (Torrence, Calif.), synthetic peptides spanning the region from IAPP 8 to 20 and 19–31 (FIG. 3) were synthesized by the Peptide Synthesis Laboratory at the University of Toronto using standard FMOC (Fluoroenylmethoxycarbonyl) based solid phase peptide synthesis methodology. The peptides were purified by reverse phase HPLC using water/acetonitrile mixtures buffered with 0. 1% trifluoroacetic acid, on a POROS 20R2 column. The synthetic peptides were solubilized in […] (1 mg/ml), filtered (0.2 μm), aliquotted and lyophilized (Higham, C E., et al., FEBS Lett. 470: 55–60, 2000). Aliquots were reconstituted as required in 20 mM sodium acetate buffer pH 6.5.\nCD was used to measure the peptide conformational changes associated with fibril formation. CD experiments were carried out at room temperature, and spectra (average of 5 scans) were collected using a Jasco J720 spectropolarimeter and quartz cuvettes with a path length of 1 mm. […]"}, "[2]": {"target": "T1, hIAPP 1–37", "assay": "Negative stain electron microscopy of IAPP fibril morphology and density", "type": "biochemical", "excerpt": "FIG. 1 illustrates the sequence of the amyloid-β (Aβ) peptide and its proposed structural domains. A peptide-based approach similar to that used for Aβ (Tjernberg, et al, J Biol Chem 272:12601–12605, 1997) has been used for targeting two key domains in IAPP initially ranging from the 8–20 and 20–29 sequences as shown in FIG. 2. These peptides, as has been shown for Aβ peptides, are able to bind to the full-length IAPP peptide and alter fibrillogenesis. The peptides disrupt fibrillogenesis by disrupting the folding into the amyloidogenic β-sheet conformation, disrupting protofilament interactions, and/or interfering with side chain interactions within the folded IAPP, which are necessary for aggregation and fibril formation. The peptides that have been examined (shown in FIG. 2) were small, synthetic hexapeptides that correspond to the principal sequence domains of IAPP. […] The in vitro assays included: Circular Dichroism (CD), to look at changes in folding of the amyloidogenic β-sheet; negative stain electron microscopy (EM) to examine changes in fibril morphology and relative density; and ThT fluorescence assay which provides a quantitative assessment of fibril formation. […]\nIn preliminary work the series of peptides were synthesized from the 20–29 domain and examined, via CD, EM and ThT fluorescence, at two molar ratios (1:10 and 1:20) in comparison to the full-length IAPP residues 1–37. […]"}, "[3]": {"tested_on": "RIN-1056A cells", "assay": "IAPP toxicity assay (alamar Blue)", "type": "cell-based", "conditions": "10 μM hIAPP with 200 μM peptide, 24 hours", "experimental": "RIN-1056A cells were plated into 96 well plates at a density of 2×10^4 cells/well in Dulbecco's Modified Eagle Medium (DMEM) (Gibco-BRL) supplemented with 5% Fetal calf serum (Gibco-BRL), 100 U/ml penicillin (Gibco-BRL), and 100 U/ml streptomycin (Gibco-BRL). After an initial 24 h of culture, cells received fresh medium containing 10 μM hIAPP or rat IAPP alone, or in combination with 200 μM SNNFGA (SEQ ID NO. 11). Cells in control wells received fresh medium only. Cells were incubated with peptide at 37° C., 5% CO2, for 24 hours, after which alamar Blue ( 1/10th volume) was added to each well. Cells were incubated in the presence of alamar Blue (MEDICORP, Montreal) for a period of 8 hours, and data was collected at 2 hour intervals. The fluorescence of the samples was measured using a SpectraMAX Gemini XS Microplate Spectrofluorometer (Molecular Devices) with an excitation wavelength of […] and an emission wavelength of 590 nm. Data were collected using the SoftMax Pro 3.1 software for MacIntosh.\nThe toxicity of hIAPP fibrils on pancreatic β cell lines has been well documented. […] cells were incubated for 24 hours in the presence of 10 μM hIAPP alone or in the presence of the peptide SNNFGA (SEQ ID NO. 11). An alamar Blue assay was used to quantitatively measure the proliferation of the cells, and compare the cytotoxic effects of various additives to the cultures."}}, "note": "Entries after “also recorded” stand apart in the source; their conditions may differ. Not every detail of the peptide structures is certain; ends, links or a residue may be inferred. No end group written: not given here.", "data": [{"substance": "SNNFGA [SNNFGA]", "values": [{"measurement": "hIAPP conformation by CD", "setting": "[1]; 1:1 molar ratio with IAPP", "value": "maintained hIAPP (1–37) in a random coil conformation"}, {"measurement": "inhibition of IAPP β-sheet transition and aggregation (CD)", "setting": "[1]; 1:10 or 1:20 molar ratio (10- or 20-fold molar excess)", "value": "majority of IAPP in these samples was maintained in a random conformation"}, {"measurement": "inhibition of IAPP β-sheet conformational change at reduced concentrations (CD)", "setting": "[1]; 5-fold molar excess (1:5) or 1:1 molar ratio", "value": "retained its inhibitory properties; also recorded: sufficient to prevent β-sheet formation"}, {"measurement": "effect on IAPP β-sheet formation / precipitation (CD)", "setting": "[1]; 48-hour incubation, pH 6.5", "value": "capable of maintaining IAPP in a random conformation"}, {"measurement": "inhibition of IAPP β-sheet formation / fibril formation, overall statement (CD)", "setting": "[1]; molar ratio not stated", "value": "strong inhibitors of β-sheet formation; also recorded: effective inhibitors even when used at low concentrations"}, {"measurement": "effect on initial random structure of IAPP (CD)", "setting": "[1]; time 0, 1:10 or 1:20 molar ratio", "value": "had no effect on the initial random structure of IAPP"}, {"measurement": "prevention of IAPP fibril formation (EM)", "setting": "[2]; 10- or 20-fold molar excess", "value": "did not completely prevent fibril formation"}, {"measurement": "effect on IAPP fibril morphology / density / aggregation (EM)", "setting": "[2]; molar ratio not stated", "value": "typical high density of IAPP fibrils was not seen; also recorded: caused a disruption in IAPP fibrillar structure; also recorded: could not completely inhibit fibril formation; also recorded: absence of fibrillar aggregates which could act as seeds"}, {"measurement": "cell viability on co-incubation with hIAPP, compared to hIAPP alone", "setting": "[3]", "value": "significant improvement in cell viability"}]}]}
